The results in this text go back to patent publication US20070189982A1.

This test addresses PrtK (mature product of the prtK gene: PrtK48, PrtK39, PrtK15, PrtK44) (Porphyromonas gingivalis W50) (UniProt Q51817). As to the kind of experiment: co-purification by anion exchange, gel filtration and Arg-sepharose FPLC; SDS-PAGE with and without boiling; N-terminal sequencing. A general note: In gel filtration, larger molecules generally elute earlier.

These are yes or no findings as the source states them, for the method shown. In cells and extracts the contact can be indirect. Some entries that bind do so weakly or less than the wild type.

On to “PrtR (mature product of the prtR gene: PrtR45, PrtR44, PrtR15, PrtR17, PrtR27) (from UniProt B2RM93 225-1703) (enzyme)”, for which the binding result is “binds”.
